# Measured values as given in PubChem BioAssay AID1347423 (Functional Genomics Laboratory (NCATS/FGL), 2020).
# Among all 52,000 sequences or so, about 210 (0.4%) were called active.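 The calls were made as follows: active = gene whose silencing raises cell survival under the drug, median off-target-corrected z-score across its silencing RNAs 2 or more; inactive = the rest.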 The list shows a part of the results.
# Assay: Resistance to Poly (ADP-Ribose) Polymerase inhibitor: Gene Identification via Genome-wide siRNA Screen
# Settings: mouse BRCA2 R2336H ES cells, olaparib, CellTiter-Glo viability; stronger effect = higher value
# In short: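 Genome-wide siRNA screen (3 siRNAs/gene, 20 nM) in mouse ES cells carrying hypomorphic BRCA2 R2336H; olaparib 500 nM added 48 h post-transfection, CellTiter-Glo viability 72 h later. Normalized to plate-median negative control; MAD z-scores, gene median, seed-adjusted.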
row,Sequence,z-score
1,GGUCCAUUACGUGCGCUUATT against Ctag3,inactive: 0.117
2,GGCAAAACCCAUUUAUGGUTT against AA536749,inactive: -0.575
3,CCGUCACACAACACUGAUGTT against Ctla4,inactive: 0.3
4,AUGUAUUGAGUCAGGCAUCTT against Olfr627,inactive: -0.431
5,CGUGAUCGUGCGUUCCAACTT against Chrnb4,inactive: -1.32
6,CAUCCCAGAGUGUUGUCUUTT against Olfr1325,inactive: -1.53
7,GGUCUUCGUGCUUUGUCAUTT against Slco2a1,inactive: 1.1
8,GGAGUUUGGUAAAAUUGACTT against Dhrs7,inactive: -0.384
9,GGUUUUCUGCAUAGAUUUUTT against Sgtb,inactive: 1.38
10,GGAGCUGAUUCUGAUGAAGTT against Fbxo31,inactive: -0.87
11,CCUAAGGUACCAUUUUAAATT against AI462438,inactive: 0.653
12,UCUACAGGACUAUUAGAUUTT against Wnt6,inactive: 1.25
13,CGGAGUGUGAGCCAUUUUGTT against 2810432L12Rik,inactive: 0.0956
14,GGCAUUGUAGAGAUGACUCTT against 4732479N06Rik,inactive: 1.16
15,CCCUAUCAACUGAUCUUUUTT against Scml2,inactive: -0.607
16,GGAGAUCGAUAUUCGACUATT against 4933434E20Rik,inactive: -0.325
17,GCCGUCAAAAAUAUGCUGATT against Stim1,inactive: 0.316
18,CCGCGUACACCAACACUCATT against Hoxa2,inactive: -1.06
19,CGGUAUUUGUCUGUAUCCUTT against Npc2,inactive: 0.249
20,GGCACACAGUUUUGUACAUTT against Nfat5,inactive: 0.631
21,GGAAAUUCUACAGAAGUCUTT against 1110006O17Rik,inactive: 0.313
22,GGCUCAGUCCCAUCAGCAUTT against Gdf7,inactive: -2.16
23,GGAUGACAUCAUCAUUUGUTT against 1110030L07Rik,inactive: -0.682
24,GGAAGAAAUGGAAAUGGAUTT against Nek9,inactive: -0.497
25,GCCCAACCUGUCCAUACUUTT against Guca2b,inactive: 0.481
26,GGUAUGAUGAACAGUCCAGTT against A730011L11,inactive: -1.44

row,Sequence,z-score
1,CAUGGACUCUAAGUAUAAUTT against GA_x5J8B7TQSKC-412-5,inactive: 1.25
2,GGCAUUCAGAGCUGAUUCATT against A930039G15Rik,inactive: -1.15
3,CCCACUGUCCAACUACUCATT against Tceb3bp1,inactive: -1.15
4,GCAAUCAAAAGAUUGUCACTT against Gmeb1,inactive: 0.964
5,GGAAGAGAAGCAAAUCCAATT against 2810022L02Rik,inactive: -2.02
6,GCUUGUAGGUGGAUACAUGTT against Slc30a4,inactive: 0.925
7,GGAGAUGAUGUGCUUCAGUTT against 4831428F09,inactive: -0.663
8,GCAGUUUUGGUGCAUGGGATT against Coq6,inactive: 1.29
9,GGUGUCAUCACAAAAAGAATT against Epha1,inactive: 0.508
10,GGACAGAAAGUUGUCUUUATT against C530043G21Rik,inactive: -0.801
11,GGUGAGACUAUAAAGAUAATT against 9230101H05Rik,inactive: 1.23
12,GGAUUCCUACAGCUUCACGTT against 1700049E17Rik,inactive: -0.937
13,GCUCAGCUGAAAAACUUGCTT against 4930564N15Rik,inactive: 0.224
14,CCAGUACCCGUCUGAAAAGTT against Olfr215,inactive: -1.22
15,GGAAGAUGAUGAGAUAAACTT against Herpud1,inactive: 0.387
16,GGAUAAAAGACUGAACAGUTT against Gpatc1,inactive: 1.97
17,GAGCCAGAAGAUAACCAAGTT against Dpm2,inactive: -1.72
18,GGCCUUGAAGGAGUAUGAGTT against Atp2a3,inactive: -0.163
19,CGGAUUGGCCAACAACGCATT against Slc24a3,inactive: -0.0318
20,CCUUAUCAAAAGCAUGCUUTT against Kist,inactive: 1.49
21,GGAAAAACAUGCCAAAAAATT against 0610027B03Rik,inactive: 0.0985
22,GAAAAAUGUGCAAGAGACUTT against Olfr1218,inactive: 0.93
23,GCUACUUUUUAGUGGUUGUTT against Olfr1298,inactive: -0.365
24,GGCAGAAAAUUCUUACAAATT against 2810022L02Rik,inactive: 0.0333
25,GGUUGAUAACAGGAAGUUUTT against Spred2,inactive: -0.283
26,GCUCCUUGCUUGAUUCUACTT against D730018G16,inactive: -0.805

row,Sequence,z-score
1,GCUCUACCCUGAAGAUAUATT against Immt,inactive: 0.207
2,CCCAAAUACCUACCAUCUCTT against Slc4a9,inactive: 2.23
3,CCACAUCUGAACAUUAGUCTT against Phxr1,inactive: -0.00456
4,GGUUUUUGUGGAGACACUGTT against Ap3s2,inactive: -0.262
5,GGACAGGAAGAUGUGGCUUTT against Ly6d,inactive: -0.595
6,GCCAAGUUUCUUUUAGAGATT against Hmgcr,inactive: -0.838
7,GGUUAAAGACCAUGUUUAUTT against Moxd1,inactive: -0.796
8,GCGGUCCAUCAUCAAACUCTT against AW060207,inactive: 0.904
9,GGAACGAUGGAUACUUGGGTT against Porcn,inactive: 1.39
10,GGCAGAUGUAACCAUAUCATT against Nfe2,inactive: -0.278
11,GGCAGAAGCACUGUGGACUTT against Agr2,inactive: 0.588
12,CCUCUGCGUAGUUUCCUUGTT against Olfr345,inactive: -0.597
13,GGCUCCUCAAAGCUAAAAATT against 1700001C19Rik,inactive: 1.92
14,GGUCACUCAGAAUAAUGCUTT against BC034664,inactive: -1.36
15,CCUUUCAGACCAGUUCAUUTT against Gsbs,inactive: -0.686
16,GCCUUCAAGCCAAAGAUAGTT against AI461788,inactive: -0.699
17,GGAAUCGCCAUCUGCAUCUTT against Cyyr1,inactive: 1.4
18,GCAUUUCACCUGGAGCCUUTT against Zfp108,inactive: -1.78
19,GGCAUUCUUUGGGAAGUAGTT against Slc9a2,inactive: 0.41
20,GCUUUUUCUACGCGUCUCATT against 1700084P21Rik,inactive: -0.886
21,GGGCGUGAUUUAUUUCUACTT against BC024997,inactive: -0.892
22,GGGUCCAUCAAGAAUUCUCTT against Rab5c,inactive: 0.879
23,GGUCCCAUAUACCAGAUCUTT against Slc3a1,inactive: -1.81
24,GGUGUCCAAUUGCCCUAUCTT against Tnfrsf12a,inactive: 1.13
25,GCGCCUUAUGCAGGAAUACTT against Rabgap1,inactive: 0.605
26,GGAAGCAGCUACUGGAAGATT against Pscd4,inactive: -0.33

# Some of the entries above in a different format:
row | Sequence | z-score
9 | GGAACGAUGGAUACUUGGGTT against Porcn | inactive: 1.39
10 | GGCAGAUGUAACCAUAUCATT against Nfe2 | inactive: -0.278
11 | GGCAGAAGCACUGUGGACUTT against Agr2 | inactive: 0.588
12 | CCUCUGCGUAGUUUCCUUGTT against Olfr345 | inactive: -0.597
13 | GGCUCCUCAAAGCUAAAAATT against 1700001C19Rik | inactive: 1.92

# Remaining list, next part:

row,Sequence,z-score
1,GGAUGAUAUCGGAGCCUGCTT against Clec4g,inactive: -1.12
2,GCUGGGUCAAACAUGACGUTT against Klhl17,inactive: 0.633
3,CCAACUGUUGGUGAUGAUGTT against Cpsf6,inactive: -3.05
4,GGUCCUGUUGAGAAUUUAATT against Zdhhc15,inactive: 0.677
5,CGUAAGAAAGACUCGUUUATT against AI595366,inactive: -1.33
6,GGAGAGAGAUUUUCAAUAUTT against E330008O22Rik,inactive: -0.227
7,GGCCAAAAAAACAUACAAGTT against Zfp295,inactive: -0.0319
8,GCAAAAUCACGCUAACGACTT against Uts2,inactive: 0.79
9,GGUGAACUCAGACUGAAUGTT against 1700021F05Rik,inactive: 0.864
10,GGUGACACUUCUUGUGGAUTT against 2410004N11Rik,inactive: -0.17
11,CCAUCGUAUUUAACCACAUTT against Dtymk,inactive: 0.621
12,GGAAUCGAGAUAUAAAAGGTT against Olfr352,inactive: -0.179
13,CCCAGUAAUCCGUUACAAATT against Cyp51,inactive: -0.664
14,GGCUUUAGAGAAAGAAGUATT against Vdrip,inactive: 0.273
15,CCUGAGUGAAAACUACUUATT against Nagk,inactive: 0.436
16,GGAUAGAACACUUUCUUUUTT against Gyk,inactive: 0.148
17,GCUGCUAUCCAGAAGGUAUTT against Egr2,inactive: 1.88
18,GGUUCUUCAGGACAAUGUGTT against 9530090G24Rik,inactive: -0.225
19,GGUUCGUGUAACCAAAGUCTT against 2310039E09Rik,inactive: -1.76
20,GGAAGGUUCCCUUGAGUUCTT against 4930556P03Rik,inactive: -1.81
21,GGGAACAGAAGUCAAGGCATT against Arch,inactive: -0.775
22,GGCUGGGCUCUAUGGAUUATT against Fasn,inactive: 2.21
23,GGCUAGUGGUUUAUUUAUGTT against Pafah1b1,inactive: 0.0695
24,GGGAUUCGGUGAAGAUUUGTT against Nfe2l1,inactive: -1.15
25,CGACAGUUACUUGCCCAGATT against Rasgrp3,inactive: -1.45
